{
  "source": "the supplement of paper PMC4604168 (melanoma cell lines)",
  "note": "The list shows a part of the results. Repeats are few or missing, and single values can be far off.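 Cells were imaged in 1,536-well plates, and nuclei stained with an antibody against cleaved PARP were counted against all DNA-stained nuclei to give the apoptosis fraction. Screening doses were chosen to leave most cells alive, and resting and induced cleaved-PARP levels differ strongly between cell lines.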",
  "data": [
    {"tested_on": "WM115", "assay": "cleaved PARP positive nuclei fraction relative to DMSO control; higher = more apoptosis", "conditions": "library dose: low library concentration; 72 h", "units": {"cleaved PARP positive nuclei fraction": "%"}, "values": [
      {"smiles": "COc1cc(Nc2ncc(F)c(Nc3ccc4c(n3)NC(=O)C(C)(C)O4)n2)cc(OC)c1OC", "note": "[Tamatinib] + O=C(Oc1ccc([N+](=O)[O-])cc1)N1CCC(C(O)(c2ccc3c(c2)OCO3)c2ccc3c(c2)OCO3)CC1 [JZL184] (first compound 0.4 µM, partner dose 1 µM)", "cleaved PARP positive nuclei fraction": 175},
      {"smiles": "COc1cc2ncnc(Nc3ccc(Oc4ccccc4)cc3)c2cc1OC", "note": "+ O=C(Oc1ccc([N+](=O)[O-])cc1)N1CCC(C(O)(c2ccc3c(c2)OCO3)c2ccc3c(c2)OCO3)CC1 [JZL184] (first compound 2 µM, partner dose 1 µM)", "cleaved PARP positive nuclei fraction": 64.7},
      {"smiles": "C/C(O)=C(\\C#N)C(=O)Nc1cc(Br)ccc1Br", "note": "+ O=C(Oc1ccc([N+](=O)[O-])cc1)N1CCC(C(O)(c2ccc3c(c2)OCO3)c2ccc3c(c2)OCO3)CC1 [JZL184] (first compound 2 µM, partner dose 1 µM)", "cleaved PARP positive nuclei fraction": 42.2},
      {"smiles": "C/C(O)=C(\\C#N)C(=O)Nc1cc(Br)ccc1Br", "note": "+ CC(C)CCN1c2nc(Nc3cc(F)c(O)c(F)c3)ncc2N(C)C(=O)C1C [BID1870] (first compound 2 µM, partner dose 0.2 µM)", "cleaved PARP positive nuclei fraction": 238},
      {"smiles": "N#Cc1c(O)c2c(-c3ccc(-c4ccccc4O)cc3)csc2[nH]c1=O", "note": "+ C/C(O)=C(\\C#N)C(=O)Nc1cc(Br)ccc1Br [LFM-A13] (first compound 2 µM, partner dose 2 µM)", "cleaved PARP positive nuclei fraction": 64.6},
      {"smiles": "C[C@]12O[C@H](C[C@]1(O)CO)n1c3ccccc3c3c4c(c5c6ccccc6n2c5c31)CNC4=O", "note": "[Lestaurtinib] + C[C@@H]1CCN(C(=O)CC#N)C[C@@H]1N(C)c1ncnc2[nH]ccc12 [CP690550] (first compound 0.004 µM, partner dose 1 µM)", "cleaved PARP positive nuclei fraction": 40.3},
      {"smiles": "Cc1ccc(NC(=O)c2cccc(N(C)C)c2)cc1NC(=O)c1ccc(O)cc1", "note": "+ C/C(O)=C(\\C#N)C(=O)Nc1cc(Br)ccc1Br [LFM-A13] (first compound 2 µM, partner dose 2 µM)", "cleaved PARP positive nuclei fraction": 73}
    ]},
    {"tested_on": "WM1716", "assay": "cleaved PARP positive nuclei fraction relative to DMSO control; melanoma cells; higher = more apoptosis", "conditions": "library dose: low library concentration; 72 h", "units": {"cleaved PARP positive nuclei fraction": "%"}, "values": [
      {"smiles": "C[C@]12O[C@H](C[C@]1(O)CO)n1c3ccccc3c3c4c(c5c6ccccc6n2c5c31)CNC4=O", "note": "[Lestaurtinib] + CCN(CC)CCCCNc1ncc2cc(-c3cc(OC)cc(OC)c3)c(NC(=O)NC(C)(C)C)nc2n1 [PD173074] (first compound 0.004 µM, partner dose 0.1 µM)", "cleaved PARP positive nuclei fraction": 102},
      {"smiles": "N#Cc1c(O)c2c(-c3ccc(-c4ccccc4O)cc3)csc2[nH]c1=O", "note": "+ O=C(Oc1ccc([N+](=O)[O-])cc1)N1CCC(C(O)(c2ccc3c(c2)OCO3)c2ccc3c(c2)OCO3)CC1 [JZL184] (first compound 2 µM, partner dose 1 µM)", "cleaved PARP positive nuclei fraction": 142},
      {"smiles": "C[C@]12O[C@H](C[C@]1(O)CO)n1c3ccccc3c3c4c(c5c6ccccc6n2c5c31)CNC4=O", "note": "[Lestaurtinib] + O=c1cc(-c2cccc3c2Sc2ccccc2S3)oc(N2CCOCC2)c1 [KU55933] (first compound 0.004 µM, partner dose 1 µM)", "cleaved PARP positive nuclei fraction": 65.9},
      {"smiles": "CCc1ccc(CCOc2ccc(CC3SC(=O)NC3=O)cc2)nc1", "note": "(stereo unspecified) [pioglitazone] + O=C(Oc1ccc([N+](=O)[O-])cc1)N1CCC(C(O)(c2ccc3c(c2)OCO3)c2ccc3c(c2)OCO3)CC1 [JZL184] (first compound 2 µM, partner dose 1 µM)", "cleaved PARP positive nuclei fraction": 244},
      {"smiles": "COc1cc2c(Oc3ccc4[nH]c(C)cc4c3F)ncnc2cc1OCCCN1CCCC1", "note": "[cediranib] + Cc1cc(SCc2sc(-c3ccc(C(F)(F)F)c(F)c3)nc2C)ccc1OCC(=O)O [GW0742] (first compound 0.4 µM, partner dose 2 µM)", "cleaved PARP positive nuclei fraction": 72},
      {"smiles": "Cc1cc(SCc2sc(-c3ccc(C(F)(F)F)c(F)c3)nc2C)ccc1OCC(=O)O", "note": "+ O=C(Oc1ccc([N+](=O)[O-])cc1)N1CCC(C(O)(c2ccc3c(c2)OCO3)c2ccc3c(c2)OCO3)CC1 [JZL184] (first compound 2 µM, partner dose 1 µM)", "cleaved PARP positive nuclei fraction": 98.2},
      {"smiles": "Cc1cc(SCc2sc(-c3ccc(C(F)(F)F)c(F)c3)nc2C)ccc1OCC(=O)O", "note": "+ COc1cc(N2CCC(N3CCN(C)CC3)CC2)ccc1Nc1ncc(Cl)c(Nc2ccccc2S(=O)(=O)C(C)C)n1 [NVP-TAE684] (first compound 2 µM, partner dose 0.08 µM)", "cleaved PARP positive nuclei fraction": 53},
      {"smiles": "C[C@]12O[C@H](C[C@]1(O)CO)n1c3ccccc3c3c4c(c5c6ccccc6n2c5c31)CNC4=O", "note": "[Lestaurtinib] + COC(=O)c1sccc1S(=O)(=O)Nc1ccc(Nc2ccccc2)cc1OC [GSK0660] (first compound 0.004 µM, partner dose 1 µM)", "cleaved PARP positive nuclei fraction": 62},
      {"smiles": "C[C@]12O[C@H](C[C@]1(O)CO)n1c3ccccc3c3c4c(c5c6ccccc6n2c5c31)CNC4=O", "note": "[Lestaurtinib] + CC1(C)NC(=O)N(c2ccc([N+](=O)[O-])c(C(F)(F)F)c2)C1=O [nilutamide] (first compound 0.004 µM, partner dose 1 µM)", "cleaved PARP positive nuclei fraction": 55.7},
      {"smiles": "O=C1NC(=O)/C(=C/c2ccc(-c3ccc(F)cc3O)o2)S1", "note": "+ O=C(Oc1ccc([N+](=O)[O-])cc1)N1CCC(C(O)(c2ccc3c(c2)OCO3)c2ccc3c(c2)OCO3)CC1 [JZL184] (first compound 1 µM, partner dose 1 µM)", "cleaved PARP positive nuclei fraction": 137},
      {"smiles": "Oc1cc(-c2nc(-c3ccccc3)[nH]c2-c2ccncc2)ccc1Cl", "note": "+ O=C(Oc1ccc([N+](=O)[O-])cc1)N1CCC(C(O)(c2ccc3c(c2)OCO3)c2ccc3c(c2)OCO3)CC1 [JZL184] (first compound 0.2 µM, partner dose 1 µM)", "cleaved PARP positive nuclei fraction": 90.4},
      {"smiles": "C[C@]12O[C@H](C[C@]1(O)CO)n1c3ccccc3c3c4c(c5c6ccccc6n2c5c31)CNC4=O", "note": "[Lestaurtinib] + O=S(=O)(c1ccccc1)N(CC(F)(F)F)c1ccc(C(O)(C(F)(F)F)C(F)(F)F)cc1 [T0901317] (first compound 0.004 µM, partner dose 1.4 µM)", "cleaved PARP positive nuclei fraction": 22.3},
      {"smiles": "NCC(=O)Nc1ccc(-n2nc(C(F)(F)F)cc2-c2ccc3c(ccc4ccccc43)c2)cc1", "note": "+ O=C(Oc1ccc([N+](=O)[O-])cc1)N1CCC(C(O)(c2ccc3c(c2)OCO3)c2ccc3c(c2)OCO3)CC1 [JZL184] (first compound 1 µM, partner dose 1 µM)", "cleaved PARP positive nuclei fraction": 92.3},
      {"smiles": "C[C@@H]1CCN(C(=O)CC#N)C[C@@H]1N(C)c1ncnc2[nH]ccc12", "note": "+ C/C(O)=C(\\C#N)C(=O)Nc1cc(Br)ccc1Br [LFM-A13] (first compound 1 µM, partner dose 2 µM)", "cleaved PARP positive nuclei fraction": 170},
      {"smiles": "C[As](C)SC[C@H](NC(=O)CC[C@H](N)C(=O)O)C(=O)NCC(=O)O", "note": "[Darinaparsin] + O=C(Nc1ccccc1)c1cc([N+](=O)[O-])ccc1Cl [GW9662] (first compound 0.4 µM, partner dose 2 µM)", "cleaved PARP positive nuclei fraction": 70},
      {"smiles": "C[C@]12O[C@H](C[C@]1(O)CO)n1c3ccccc3c3c4c(c5c6ccccc6n2c5c31)CNC4=O", "note": "[Lestaurtinib] + O=C(O)c1ccc(-c2c[nH]c3ncc(-c4ccccc4)cc23)cc1C1CCCC1 [GSK650394] (first compound 0.004 µM, partner dose 0.16 µM)", "cleaved PARP positive nuclei fraction": 150},
      {"smiles": "C[C@]12O[C@H](C[C@]1(O)CO)n1c3ccccc3c3c4c(c5c6ccccc6n2c5c31)CNC4=O", "note": "[Lestaurtinib] + Oc1cc(-c2nc(-c3ccccc3)[nH]c2-c2ccncc2)ccc1Cl [L779450] (first compound 0.004 µM, partner dose 0.2 µM)", "cleaved PARP positive nuclei fraction": 82.4},
      {"smiles": "COc1ccc2c(c1)CCC1C2CCC2(C)C(NCCCCCCN3C(=O)C=CC3=O)CCC12", "note": "(stereo unspecified) + C/C(O)=C(\\C#N)C(=O)Nc1cc(Br)ccc1Br [LFM-A13] (first compound 0.4 µM, partner dose 2 µM)", "cleaved PARP positive nuclei fraction": 88.4},
      {"smiles": "Cc1cc(SCc2sc(-c3ccc(C(F)(F)F)c(F)c3)nc2C)ccc1OCC(=O)O", "note": "+ C/C(O)=C(\\C#N)C(=O)Nc1cc(Br)ccc1Br [LFM-A13] (first compound 2 µM, partner dose 2 µM)", "cleaved PARP positive nuclei fraction": 86.6},
      {"smiles": "COC(=O)c1sccc1S(=O)(=O)Nc1ccc(Nc2ccccc2)cc1OC", "note": "+ C/C(O)=C(\\C#N)C(=O)Nc1cc(Br)ccc1Br [LFM-A13] (first compound 1 µM, partner dose 2 µM)", "cleaved PARP positive nuclei fraction": 185},
      {"smiles": "O=C(O)c1ccc(-c2c[nH]c3ncc(-c4ccccc4)cc23)cc1C1CCCC1", "note": "+ O=C(Oc1ccc([N+](=O)[O-])cc1)N1CCC(C(O)(c2ccc3c(c2)OCO3)c2ccc3c(c2)OCO3)CC1 [JZL184] (first compound 0.16 µM, partner dose 1 µM)", "cleaved PARP positive nuclei fraction": 123},
      {"smiles": "C[C@@H]1CCN(C(=O)CC#N)C[C@@H]1N(C)c1ncnc2[nH]ccc12", "note": "+ Cc1cc(SCc2sc(-c3ccc(C(F)(F)F)c(F)c3)nc2C)ccc1OCC(=O)O [GW0742] (first compound 1 µM, partner dose 2 µM)", "cleaved PARP positive nuclei fraction": 55.3},
      {"smiles": "O=C(Nc1cccc(Cl)c1)Nc1ncc(CCNc2ncnc3ccsc23)s1", "note": "+ Cc1cc(SCc2sc(-c3ccc(C(F)(F)F)c(F)c3)nc2C)ccc1OCC(=O)O [GW0742] (first compound 0.0008 µM, partner dose 2 µM)", "cleaved PARP positive nuclei fraction": 148},
      {"smiles": "C[C@]12O[C@H](C[C@]1(O)CO)n1c3ccccc3c3c4c(c5c6ccccc6n2c5c31)CNC4=O", "note": "[Lestaurtinib] + COc1cc2ncnc(Nc3ccc(Oc4ccccc4)cc3)c2cc1OC [SrcI1] (first compound 0.004 µM, partner dose 2 µM)", "cleaved PARP positive nuclei fraction": 45.1}
    ]}
  ]
}
